Publication PMC6270094, “Dibenzo[1,2,5]thiadiazepines Are Non-Competitive GABAA Receptor Antagonists” (Molecules, 2013)
Like-named read-outs stand apart in the source and are kept apart here.

Test system: native GABAA receptors of guinea pig myenteric neurons
Assay: Whole-cell recordings of membrane currents induced by GABA (IGABA) in cultured myenteric neurons
Format: cell-based
Excerpt: Guinea pigs (100–200 g; either male or female) were sacrificed by cervical dislocation and carotid exsanguination. These methods have been approved by the Animal Care Committee of the IPICYT and are in agreement with the published Guiding Principles in the Care and Use of Animals, approved by the American Physiological Society. A segment of ~10 cm of the jejunum was removed and placed in a modified Krebs solution (in mM: NaCl, 126; NaH2PO4, 1.2; MgCl2, 1.2; CaCl2, 2.5; KCl, 5; NaH2CO3, 25; glucose, 11. The sample was gassed under 95% O2 and 5% CO2) and opened longitudinally. […]
All experiments were conducted using standard solutions with the following compositions (in mM); inside the pipette: CsCl, 160; EGTA, 10; HEPES, 5; NaCl, 10; ATPMg, 3 and GTP, 0.1; external solution: NaCl, 160; CaCl2, 2; glucose, 11; HEPES, 5 and CsCl, 3. […] The whole-cell current data were recorded on a PC using the AxoScope software (Axon Instruments, Inc.) and were analyzed using the AXOGRAPH software (Molecular Devices, CA, USA). […] A control tube was positioned ~300 μm in front of the recorded neuron, and substances were applied externally by abruptly interchanging the tube for another tube containing the control solution plus the drug(s). […]

NCCCC(=O)O [GABA]
EC50 (read-out: EC50 of GABA concentration-response curve): 127 ± 16 µM | EC50 (read-out: EC50 of GABA-induced inward currents (IGABA)): 115 ± 10 µM
